Measured values taken from publication PMC7523510.
Results are given in words; binding and its absence hold for the method and conditions named. In cells and extracts the contact can be indirect. Some binding calls cover weakened binding; strength is not graded here.

Chains of the proteins cited; added tags and fusions are not shown.
UniProt P08103: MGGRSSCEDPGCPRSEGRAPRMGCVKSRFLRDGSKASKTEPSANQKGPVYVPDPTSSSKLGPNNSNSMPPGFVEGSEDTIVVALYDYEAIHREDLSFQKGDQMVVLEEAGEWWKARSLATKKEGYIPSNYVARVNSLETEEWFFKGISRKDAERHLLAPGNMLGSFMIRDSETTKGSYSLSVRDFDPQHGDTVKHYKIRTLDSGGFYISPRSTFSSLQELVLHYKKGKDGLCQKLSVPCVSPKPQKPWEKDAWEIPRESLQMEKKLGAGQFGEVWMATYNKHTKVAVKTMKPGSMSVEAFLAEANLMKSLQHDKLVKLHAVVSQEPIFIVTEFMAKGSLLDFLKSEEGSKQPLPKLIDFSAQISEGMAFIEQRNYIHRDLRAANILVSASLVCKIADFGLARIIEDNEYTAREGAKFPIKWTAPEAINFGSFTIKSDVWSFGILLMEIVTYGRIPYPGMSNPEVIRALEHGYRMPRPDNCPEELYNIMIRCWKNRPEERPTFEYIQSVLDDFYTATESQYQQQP
UniProt Q8R4B8: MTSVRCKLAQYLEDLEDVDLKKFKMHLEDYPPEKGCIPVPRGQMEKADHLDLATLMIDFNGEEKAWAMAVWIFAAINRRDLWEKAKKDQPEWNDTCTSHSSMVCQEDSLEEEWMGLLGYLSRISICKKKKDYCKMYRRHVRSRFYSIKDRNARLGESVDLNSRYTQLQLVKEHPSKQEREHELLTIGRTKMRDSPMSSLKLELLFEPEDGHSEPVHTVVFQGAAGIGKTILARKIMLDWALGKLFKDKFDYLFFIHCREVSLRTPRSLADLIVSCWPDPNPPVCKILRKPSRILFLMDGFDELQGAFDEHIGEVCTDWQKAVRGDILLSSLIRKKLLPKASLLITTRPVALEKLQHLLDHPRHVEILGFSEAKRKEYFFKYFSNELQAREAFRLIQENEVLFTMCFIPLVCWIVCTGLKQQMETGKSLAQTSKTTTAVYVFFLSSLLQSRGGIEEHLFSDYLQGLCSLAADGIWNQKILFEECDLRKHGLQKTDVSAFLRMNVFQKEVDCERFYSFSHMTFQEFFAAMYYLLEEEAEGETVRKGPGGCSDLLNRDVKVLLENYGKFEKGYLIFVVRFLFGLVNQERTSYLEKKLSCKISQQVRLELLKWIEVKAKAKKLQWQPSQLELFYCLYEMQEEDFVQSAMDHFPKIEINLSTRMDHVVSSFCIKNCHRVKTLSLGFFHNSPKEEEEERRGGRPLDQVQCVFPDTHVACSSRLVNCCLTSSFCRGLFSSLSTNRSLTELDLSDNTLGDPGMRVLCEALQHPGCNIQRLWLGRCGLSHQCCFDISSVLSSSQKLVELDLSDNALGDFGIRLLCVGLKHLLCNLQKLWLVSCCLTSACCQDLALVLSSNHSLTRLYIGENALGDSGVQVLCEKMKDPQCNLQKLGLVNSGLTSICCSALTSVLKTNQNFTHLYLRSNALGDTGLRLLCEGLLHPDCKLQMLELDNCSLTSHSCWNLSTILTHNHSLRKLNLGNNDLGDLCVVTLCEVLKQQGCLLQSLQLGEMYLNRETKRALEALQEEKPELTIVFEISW

Target: endogenous HCK (hematopoietic cell kinase) (mouse (endogenous in iBMDMs / PMs)) (UniProt P08103)
Test: co-IP; endogenous proteins; LPS-primed iBMDMs treated or not with 1 μM A419259 and stimulated with 5 μM nigericin; anti-HCK or anti-ASC antibody on protein A/G magnetic beads, overnight at 4°C; immunoblot

binding: binds
Substance: endogenous NLRP3 (from UniProt Q8R4B8 1-1033)
